Consider 16 molecules from PubChem BioAssay AID1487 (National Center for Advancing Translational Sciences (NCATS), 2009).

Each structure is given as a SMILES string. Some of the results follow. The main result of the screen is listed elsewhere. These columns were measured beside it and carry no call. Most of these compounds were active or inconclusive in the main read-out, so they are no random draw. Potencies come from curve fits of mixed quality, noted in brackets.

This experiment is described as follows: qHTS Assay for Modulators of Lamin A Splicing. The following applies: HeLa LMNA splicing GFP/RFP minigene ratio, 48 h. The gist of the method: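 Read-out is the ratio of GFP to DsRed2 object intensity, acquired by 488 nm laser-scanning cytometry on HeLa lamin A-EGFP minigene reporter cells. Compound incubation 48 hrs at 37 °C in Opti-MEM with 2% FBS; DMSO 0.5% final.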

The mark [1] stands for this setting: measured here: RFP viability control channel.
[2] abbreviates: measured here: GFP splicing reporter channel.

For orientation: AC50 means the midpoint of the concentration-response curve, whichever way the signal moves.

In the case of `O=C(COc1ccccc1Cl)N1CCN(c2ccc([N+](=O)[O-])c(N3CCOCC3)c2)CC1`, under setting [1], the AC50 was 8.91 µM [rising, partial curve, poor fit].
`Cc1ccc(SCC(=O)Nc2ccc3oc(-c4ccc(F)cc4)nc3c2)cc1`: the AC50 under setting [2] is 14.1 µM [falling, partial curve, poor fit].
Turning to `N#Cc1cc(C(=O)c2cc(F)ccc2O)cn(-c2nccs2)c1=O`, the AC50 under setting [1] is 28.2 µM [rising, partial curve].
Same read-out and setting: the same measure for `O=C(Nc1cccnc1)c1cccs1`: 2.24 µM [rising, full curve].
As for `CCOc1ccc(CNC(=O)CCc2c(C)nn(-c3ccc(N4CCOCC4)nn3)c2C)cc1`, the concentration at half-maximal activity (AC50) under setting [2] is 2.24 µM [rising, partial curve, poor fit].
`O=c1c2ccccc2c(/C=N/c2ncn[nH]2)c(O)n1Cc1ccccc1`: the AC50 under setting [2] is 20 µM [rising, partial curve, poor fit] and the half-maximal activity concentration (AC50) under setting [1] is 15.8 µM [rising, partial curve].
On to `c1ccc2oc(-c3csc(NCC4CCCO4)n3)cc2c1` (stereo not given), for which the AC50 under setting [1] is 0.112 µM [rising, partial curve, poor fit].
Regarding `Cc1cccc(NCc2ccc(O)c3ncccc23)c1C`, the half-maximal activity concentration (AC50) runs as follows: under setting [2], 10 µM [falling, partial curve]; under setting [1], 15.8 µM [falling, partial curve].
Regarding `CC(C)NC(=O)Cn1c(=O)nc(-c2ccccc2)c2ccccc21`, under setting [2], the AC50 was 5.62 µM [rising, single point].
With `Cc1ccc(C(=O)O/N=C/c2c(N3CCOCC3)n(C)c3ccccc23)cc1`, the AC50 runs as follows: under setting [2], 14.1 µM [falling, partial curve]; under setting [1], 7.94 µM [falling, partial curve].
For `Cn1c(Cc2cccc3ccccc23)nnc1SCC(=O)N1CCN(c2cccc(Cl)c2)CC1`, the half-maximal activity concentration (AC50) under setting [1] was 11.2 µM [rising, partial curve].
Still for that read-out and setting: the value for `N#C/C(=N\O)c1nc(-c2ccccc2)cs1` was 35.5 µM [rising, single point]; that for `COc1cccc(CNn2c(-c3cccc(C)c3)nc3ccccc3c2=O)c1` was 35.5 µM [rising, single point].
Turning to `Cc1nn(C)cc1C1C(C#N)=C(N)N(c2ccc(F)c([N+](=O)[O-])c2)C2=C1C(=O)CCC2` (stereo not given), under setting [1], the concentration at half-maximal activity (AC50) is 14.1 µM [rising, single point].
Still for that read-out and setting: the value for `CC(=C\c1ccco1)/C=C(\C#N)C(=O)NCCc1c[nH]c2ccccc12` was 35.5 µM [rising, single point].
With `COc1ccc(-c2cc(C(=O)Nc3c(C(=O)c4ccc(C)c(F)c4)oc4ccccc34)no2)cc1`, the half-maximal activity concentration (AC50) is 12.6 µM [rising, partial curve] under setting [2] and 0.398 µM [rising, full curve, poor fit] under setting [1].
